Experimental data published in patent US7250488.
No constants are given. Whether binding was seen depends on the method and setting. Tags and fused reporters may be left off the sequences shown.

Columns and labels:
Test in all cases: GST/ICAT pull-down of ^35S-labeled in vitro translated protein, autoradiography
Axin, ^35S-labeled = biological target: Axin, ^35S-labeled
DVL-1, ^35S-labeled = biological target: DVL-1, ^35S-labeled
[1] = biological target: GSK-3β (glycogen synthase kinase-3β), ^35S-labeled
[2] = biological target: TCF-4 (T cell factor 4), ^35S-labeled

Measured: binding

B1: GST/ICAT (fusion protein between GST and ICAT) (protein, not shown: a dimerising Fc or GST)
chain: MNREGAPGKSPEEMYIQQKVRVLLMLRKMGSNLTASEEEFLRTYAGVVSSQLSQLPQHSIDQGAEDVVMAFSRSETEDRRQ
no binding: Axin, ^35S-labeled | DVL-1, ^35S-labeled | [1] | [2]
